Laboratory results from patent US8445676B2, “Pyrrolotriazine kinase inhibitors” (Bristol-Myers Squibb Company, priority 2008, dated 2013).
Some results were stated once for a whole list of compounds, not compound by compound.

Chains of the proteins cited; added tags and fusions are not shown. Lines headed by an entry give the natural chain unless they say otherwise; changes in a name come on top.
UniProt O60674: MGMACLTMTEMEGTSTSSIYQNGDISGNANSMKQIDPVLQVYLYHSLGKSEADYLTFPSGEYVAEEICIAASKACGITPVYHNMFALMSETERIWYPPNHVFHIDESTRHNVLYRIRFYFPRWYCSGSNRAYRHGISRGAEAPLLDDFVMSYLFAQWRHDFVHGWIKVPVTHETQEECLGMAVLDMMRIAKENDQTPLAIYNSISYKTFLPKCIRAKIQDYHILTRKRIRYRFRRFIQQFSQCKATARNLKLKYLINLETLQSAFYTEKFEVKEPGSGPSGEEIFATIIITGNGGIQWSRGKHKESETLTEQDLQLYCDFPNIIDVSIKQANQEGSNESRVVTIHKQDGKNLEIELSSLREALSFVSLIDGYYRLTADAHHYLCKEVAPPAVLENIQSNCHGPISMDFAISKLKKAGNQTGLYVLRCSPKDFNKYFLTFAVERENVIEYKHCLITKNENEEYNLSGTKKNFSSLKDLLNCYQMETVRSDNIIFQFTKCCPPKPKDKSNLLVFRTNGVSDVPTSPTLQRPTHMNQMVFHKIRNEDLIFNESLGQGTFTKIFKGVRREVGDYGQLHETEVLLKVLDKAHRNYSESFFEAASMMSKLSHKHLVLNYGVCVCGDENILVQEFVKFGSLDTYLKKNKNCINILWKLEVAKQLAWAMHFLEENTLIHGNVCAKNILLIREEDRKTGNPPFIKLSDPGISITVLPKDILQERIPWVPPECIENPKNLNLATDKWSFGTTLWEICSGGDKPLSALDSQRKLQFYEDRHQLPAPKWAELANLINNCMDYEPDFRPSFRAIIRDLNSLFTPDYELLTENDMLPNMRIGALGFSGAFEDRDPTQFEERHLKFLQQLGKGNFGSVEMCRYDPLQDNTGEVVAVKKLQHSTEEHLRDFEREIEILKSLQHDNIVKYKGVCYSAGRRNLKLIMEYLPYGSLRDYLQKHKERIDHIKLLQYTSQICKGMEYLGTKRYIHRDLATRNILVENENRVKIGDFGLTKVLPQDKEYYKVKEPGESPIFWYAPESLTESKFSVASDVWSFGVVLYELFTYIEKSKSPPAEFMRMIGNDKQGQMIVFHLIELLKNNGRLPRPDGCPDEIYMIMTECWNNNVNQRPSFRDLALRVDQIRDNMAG

Each compound was assayed against JAK2 (Homo sapiens, UniProt O60674) (assay: JAK2 Tyrosine Kinase Assay). Details: list of named compounds.
Format: biochemical
Experimental: JAK2 Tyrosine Kinase Assay
The assays were performed in V-bottom 384-well plates. […] The reaction was initiated by the combination of JAK2 with substrates and test compounds. The reaction was incubated at room temperature for 60 min. and terminated by adding 45 μl of 35 mM EDTA to each sample. The reaction mixture was analyzed on the Caliper LabChip 3000 by electrophoretic separation of the fluorescent substrate and phosphorylated product. […] Compounds were dissolved at 10 mM in dimethylsulfoxide (DMSO) and evaluated at eleven concentrations, each in duplicate. IC50 values were derived by non-linear regression analysis

Row | SMILES | selectivity for JAK2 activity versus JAK3 activity
1 | Cc1cc(Nc2nc(N3CCN(C(=O)C(O)c4c(F)cccc4F)CC3)nn3cccc23)n[nH]1 (stereo not shown) [1-(2,6-difluorophenyl)-2-(4-(4-((5-methyl-1H-pyrazol-3-yl)amino)pyrrolo[2,1-f][1,2,4]triazin-2-yl)-1-piperazinyl)-2-oxoethanol] | ≥ 15
2 | Cc1cc(Nc2nc(N3CCN(C(=O)C(O)c4ccc(Cl)cc4)CC3)nn3cccc23)n[nH]1 (stereo not shown) [1-(4-chlorophenyl)-2-(4-(4-((5-methyl-1H-pyrazol-3-yl)amino)pyrrolo[2,1-f][1,2,4]triazin-2-yl)-1-piperazinyl)-2-oxoethanol] | ≥ 15
3 | Cc1cc(Nc2nc(N3CCN(C(=O)C(O)c4ccc(F)cc4)CC3)nn3cccc23)n[nH]1 (stereo not shown) [1-(4-fluorophenyl)-2-(4-(4-((5-methyl-1H-pyrazol-3-yl)amino)pyrrolo[2,1-f][1,2,4]triazin-2-yl)-1-piperazinyl)-2-oxoethanol] | ≥ 15
4 | Cc1cc(Nc2nc(N3CCN(C(=O)C4(C#N)CC4)CC3)nn3cccc23)n[nH]1 [1-((4-(4-((5-methyl-1H-pyrazol-3-yl)amino)pyrrolo[2,1-f][1,2,4]triazin-2-yl)-1-piperazinyl)carbonyl)cyclopropanecarbonitrile] | ≥ 15
5 | Cc1cc(Nc2nc(N3CCN(C(=O)Cc4ccccc4C#N)CC3)nn3cccc23)n[nH]1 [2-(2-(4-(4-((5-methyl-1H-pyrazol-3-yl)amino)pyrrolo[2,1-f][1,2,4]triazin-2-yl)-1-piperazinyl)-2-oxoethyl)benzonitrile] | ≥ 15
6 | CCC(C)(C)C(=O)N1CCN(c2nc(Nc3cc(C)[nH]n3)c3cccn3n2)CC1 [2-(4-(2,2-dimethylbutanoyl)-1-piperazinyl)-N-(5-methyl-1H-pyrazol-3-yl)pyrrolo[2,1-f][1,2,4]triazin-4-amine] | ≥ 15
7 | Cc1cc(Nc2nc(N3CCN(C(=O)C(C)(C)C)CC3)nn3cccc23)n[nH]1 [2-(4-(2,2-dimethylpropanoyl)-1-piperazinyl)-N-(5-methyl-1H-pyrazol-3-yl)pyrrolo[2,1-f][1,2,4]triazin-4-amine] | ≥ 15
8 | Cc1cc(Nc2nc(N3CCN(C(=O)c4ccc(Cl)cc4Cl)CC3)nn3cccc23)n[nH]1 [2-(4-(2,4-dichlorobenzoyl)-1-piperazinyl)-N-(5-methyl-1H-pyrazol-3-yl)pyrrolo[2,1-f][1,2,4]triazin-4-amine] | ≥ 15
9 | Cc1cc(Nc2nc(N3CCN(C(=O)c4ccccc4-c4c(C)n[nH]c4C)CC3)nn3cccc23)n[nH]1 [2-(4-(2-(3,5-dimethyl-1H-pyrazol-4-yl)benzoyl)-1-piperazinyl)-N-(5-methyl-1H-pyrazol-3-yl)pyrrolo[2,1-f][1,2,4]triazin-4-amine] | ≥ 15
10 | Cc1cc(Nc2nc(N3CCN(C(=O)C(C)(C)c4ccc(Cl)cc4)CC3)nn3cccc23)n[nH]1 [2-(4-(2-(4-chlorophenyl)-2-methylpropanoyl)-1-piperazinyl)-N-(5-methyl-1H-pyrazol-3-yl)pyrrolo[2,1-f][1,2,4]triazin-4-amine] | ≥ 15
11 | Cc1cc(Nc2nc(N3CCN(C(=O)C(c4ccc(Cl)cc4)C(C)C)CC3)nn3cccc23)n[nH]1 (stereo not shown) [2-(4-(2-(4-chlorophenyl)-3-methylbutanoyl)-1-piperazinyl)-N-(5-methyl-1H-pyrazol-3-yl)pyrrolo[2,1-f][1,2,4]triazin-4-amine] | ≥ 15
12 | Cc1cc(Nc2nc(N3CCN(C(=O)C(C)c4ccc(Cl)cc4)CC3)nn3cccc23)n[nH]1 (stereo not shown) [2-(4-(2-(4-chlorophenyl)propanoyl)-1-piperazinyl)-N-(5-methyl-1H-pyrazol-3-yl)pyrrolo[2,1-f][1,2,4]triazin-4-amine] | ≥ 15
13 | Cc1cc(Nc2nc(N3CCN(C(=O)c4ccccc4-c4ccccc4)CC3)nn3cccc23)n[nH]1 [2-(4-(2-biphenylylcarbonyl)-1-piperazinyl)-N-(5-methyl-1H-pyrazol-3-yl)pyrrolo[2,1-f][1,2,4]triazin-4-amine] | ≥ 15
14 | Cc1cc(Nc2nc(N3CCN(C(=O)c4ccccc4Br)CC3)nn3cccc23)n[nH]1 [2-(4-(2-bromobenzoyl)-1-piperazinyl)-N-(5-methyl-1H-pyrazol-3-yl)pyrrolo[2,1-f][1,2,4]triazin-4-amine] | ≥ 15
15 | Cc1cc(Nc2nc(N3CCN(C(=O)c4cc(F)c(F)cc4Cl)CC3)nn3cccc23)n[nH]1 [2-(4-(2-chloro-4,5-difluorobenzoyl)-1-piperazinyl)-N-(5-methyl-1H-pyrazol-3-yl)pyrrolo[2,1-f][1,2,4]triazin-4-amine] | ≥ 15
16 | Cc1cc(Nc2nc(N3CCN(C(=O)c4c(F)cccc4Cl)CC3)nn3cccc23)n[nH]1 [2-(4-(2-chloro-6-fluorobenzoyl)-1-piperazinyl)-N-(5-methyl-1H-pyrazol-3-yl)pyrrolo[2,1-f][1,2,4]triazin-4-amine] | ≥ 15

Row | SMILES | selectivity for JAK2 activity versus JAK3 activity
17 | Cc1cc(Nc2nc(N3CCN(C(=O)c4c(C)cccc4Cl)CC3)nn3cccc23)n[nH]1 [2-(4-(2-chloro-6-methylbenzoyl)-1-piperazinyl)-N-(5-methyl-1H-pyrazol-3-yl)pyrrolo[2,1-f][1,2,4]triazin-4-amine] | ≥ 15
18 | Cc1cc(Nc2nc(N3CCN(C(=O)c4ccccc4Cl)CC3)nn3cccc23)n[nH]1 [2-(4-(2-chlorobenzoyl)-1-piperazinyl)-N-(5-methyl-1H-pyrazol-3-yl)pyrrolo[2,1-f][1,2,4]triazin-4-amine] | ≥ 15
19 | COc1cccc(F)c1C(=O)N1CCN(c2nc(Nc3cc(C)[nH]n3)c3cccn3n2)CC1 [2-(4-(2-fluoro-6-methoxybenzoyl)-1-piperazinyl)-N-(5-methyl-1H-pyrazol-3-yl)pyrrolo[2,1-f][1,2,4]triazin-4-amine] | ≥ 15
20 | Cc1cc(Nc2nc(N3CCN(C(=O)c4ccccc4F)CC3)nn3cccc23)n[nH]1 [2-(4-(2-fluorobenzoyl)-1-piperazinyl)-N-(5-methyl-1H-pyrazol-3-yl)pyrrolo[2,1-f][1,2,4]triazin-4-amine] | ≥ 15
21 | Cc1cc(Nc2nc(N3CCN(C(=O)c4cccc(Cl)c4)CC3)nn3cccc23)n[nH]1 [2-(4-(3-chlorobenzoyl)-1-piperazinyl)-N-(5-methyl-1H-pyrazol-3-yl)pyrrolo[2,1-f][1,2,4]triazin-4-amine] | ≥ 15
22 | Cc1cc(Nc2nc(N3CCN(C(=O)c4cccc(F)c4)CC3)nn3cccc23)n[nH]1 [2-(4-(3-fluorobenzoyl)-1-piperazinyl)-N-(5-methyl-1H-pyrazol-3-yl)pyrrolo[2,1-f][1,2,4]triazin-4-amine] | ≥ 15
23 | COc1cccc(C(=O)N2CCN(c3nc(Nc4cc(C)[nH]n4)c4cccn4n3)CC2)c1 [2-(4-(3-methoxybenzoyl)-1-piperazinyl)-N-(5-methyl-1H-pyrazol-3-yl)pyrrolo[2,1-f][1,2,4]triazin-4-amine] | ≥ 15
24 | Cc1cc(Nc2nc(N3CCN(C(=O)C(c4ccccc4)C(C)C)CC3)nn3cccc23)n[nH]1 (stereo not shown) [2-(4-(3-methyl-2-phenylbutanoyl)-1-piperazinyl)-N-(5-methyl-1H-pyrazol-3-yl)pyrrolo[2,1-f][1,2,4]triazin-4-amine] | ≥ 15
25 | Cc1cc(Nc2nc(N3CCN(C(=O)C(=O)c4ccccc4)CC3)nn3cccc23)n[nH]1 [2-(4-(4-((5-methyl-1H-pyrazol-3-yl)amino)pyrrolo[2,1-f][1,2,4]triazin-2-yl)-1-piperazinyl)-2-oxo-1-phenylethanone] | ≥ 15
26 | Cc1cc(Nc2nc(N3CCN(C(=O)c4ccc(Cl)cc4F)CC3)nn3cccc23)n[nH]1 [2-(4-(4-chloro-2-fluorobenzoyl)-1-piperazinyl)-N-(5-methyl-1H-pyrazol-3-yl)pyrrolo[2,1-f][1,2,4]triazin-4-amine] | ≥ 15
27 | Cc1cc(Nc2nc(N3CCN(C(=O)c4ccno4)CC3)nn3cccc23)n[nH]1 [2-(4-(5-isoxazolylcarbonyl)-1-piperazinyl)-N-(5-methyl-1H-pyrazol-3-yl)pyrrolo[2,1-f][1,2,4]triazin-4-amine] | ≥ 15
28 | Cc1cc(Nc2nc(N3CCN(C(=O)C4(c5c(F)cccc5Cl)CCCCC4)CC3)nn3cccc23)n[nH]1 [2-(4-((1-(2-chloro-6-fluorophenyl)cyclohexyl)carbonyl)-1-piperazinyl)-N-(5-methyl-1H-pyrazol-3-yl)pyrrolo[2,1-f][1,2,4]triazin-4-amine] | ≥ 15
29 | Cc1cc(Nc2nc(N3CCN(C(=O)C4(c5ccccc5F)CCCC4)CC3)nn3cccc23)n[nH]1 [2-(4-((1-(2-fluorophenyl)cyclopentyl)carbonyl)-1-piperazinyl)-N-(5-methyl-1H-pyrazol-3-yl)pyrrolo[2,1-f][1,2,4]triazin-4-amine] | ≥ 15
30 | Cc1cc(Nc2nc(N3CCN(C(=O)C4(c5ccc(Cl)cc5)CCCCC4)CC3)nn3cccc23)n[nH]1 [2-(4-((1-(4-chlorophenyl)cyclohexyl)carbonyl)-1-piperazinyl)-N-(5-methyl-1H-pyrazol-3-yl)pyrrolo[2,1-f][1,2,4]triazin-4-amine] | ≥ 15
31 | Cc1cc(Nc2nc(N3CCN(C(=O)C4(c5ccc(F)cc5)CC4(C)C)CC3)nn3cccc23)n[nH]1 (stereo not shown) [2-(4-((1-(4-fluorophenyl)-2,2-dimethylcyclopropyl)carbonyl)-1-piperazinyl)-N-(5-methyl-1H-pyrazol-3-yl)pyrrolo[2,1-f][1,2,4]triazin-4-amine] | ≥ 15
